## Primary screen of a compound library

Sequences of proteins named here, by UniProt entry; tags and fusion partners are left off. Residues count along the entry.
UniProt Q4DA54, 1-478: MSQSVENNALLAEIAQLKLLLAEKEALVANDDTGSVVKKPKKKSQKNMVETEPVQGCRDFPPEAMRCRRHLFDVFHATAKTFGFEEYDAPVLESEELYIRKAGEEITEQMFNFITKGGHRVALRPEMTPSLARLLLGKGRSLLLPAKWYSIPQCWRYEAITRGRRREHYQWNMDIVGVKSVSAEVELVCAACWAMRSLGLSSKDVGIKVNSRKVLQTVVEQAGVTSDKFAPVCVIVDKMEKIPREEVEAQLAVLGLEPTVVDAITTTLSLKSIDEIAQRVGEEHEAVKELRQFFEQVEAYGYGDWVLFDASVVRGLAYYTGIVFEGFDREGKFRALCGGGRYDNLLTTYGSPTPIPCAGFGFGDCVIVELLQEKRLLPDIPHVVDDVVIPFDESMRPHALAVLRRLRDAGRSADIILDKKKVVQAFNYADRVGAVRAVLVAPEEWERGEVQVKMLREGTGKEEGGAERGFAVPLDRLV

Source: ChEMBL document CHEMBL3988442, “University of Dundee, Small-Polar-MMV Screening Library” (2021).

A: 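Assay of Toxoplasma gondii numbers, read through their beta-galactosidase reporter with a colour substrate. Compounds at 10 µM. The record gives no direction; the compounds picked for IC50 retests had high values, so higher reads as fewer parasites. Size under these conditions: about 67,000 compounds, about 260 of them at 50% or above in at least one test.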
B: 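Histidine-tRNA ligase, Trypanosoma cruzi CL Brener (UniProt Q4DA54). Enzyme assay of histidyl-tRNA synthetase; the read-out is not stated. Tested at 30 µM. Direction is inferred from retests: higher values go with stronger inhibition. About 69,000 compounds were tested under these conditions; 0.045% (about 31) showed 50% or more at least once.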

Each number is a percent effect as filed. The record does not define 0% and 100%; most values in the screen are far below 50% and negative numbers occur (in some assays of this library far below -100). This is an unselected part of the compounds tested.

For Cc1cccc(OCCC(=O)N(C)CCNS(C)(=O)=O)c1C the result was A: -0.3519%; B: 5.435%. CCC(C)(NCC(=O)NC(C)C)c1nccs1 (centres undefined) read A: 13.5%; B: 0%. Result for CCc1nc(C)sc1CN1CC[C@@](O)(C2CC2)[C@H](C)C1 was A: -4.864%; B: 3.96%. CN(Cc1cccnc1)C[C@@H]1OC[C@H]2CN(C(=O)C3CC3)CC[C@H]21 read B: 5.435%. Result for Cc1ccc2nc(CN3CCCCC3CCn3cccn3)cn2c1 (centres undefined) was A: -5.37%; B: 4.478%. Cc1nnc(CCNC(=O)[C@H]2CNC[C@@H](C(=O)N3CCCC3)C2)s1 gave A: 1.727%; B: 6.03%. CCOc1ccccc1N(C)C(=O)c1cscn1 read A: -3.68%; B: 8.511%.

Result for [H][C@@]12CCCCN(Cc3cccc(C)c3)[C@]1([H])CN(c1ncccn1)C2 was A: -23.66%. For CN(C)S(=O)(=O)NCC(Cc1cccc(F)c1)N1CCNC1=O (centres undefined) the result was A: -12.27%; B: 8.434%. O=C(Cc1ccccc1)N1CCC2(CC1)CC(Nc1cnccn1)CO2 (centres undefined) gave A: 5.781%; B: 7.778%. CC(=O)c1cccc(OCCCC(=O)N(C)Cc2cnc(C)s2)c1 gave A: 0.5057%; B: 6.897%. Result for Cc1ccc(-n2cc(S(=O)(=O)Nc3cccc(C(=O)O)c3C)cn2)cc1 was A: 21.01%; B: 3%. With CC(C)COC(=O)N1CCC2(CCNC2)C1 (centres undefined) the screen gave B: 5.825%. With CCC(Cn1ccc2[nH]c(=O)c(C#N)cc2c1=O)OC (centres undefined) the screen gave A: -0.5187%; B: 3.665%.

With Cn1c(C(=O)N2CC[C@@]3(O)CCCC[C@H]3C2)cc2ccccc21 the screen gave B: 1.754%. For CNC(=O)c1cc2c(nc1N(C)C)CCN(c1ncc(F)cn1)CC2 the result was B: 5.528%. With CC(C)c1cc(C(=O)N2CCOC3(CCCC3)C2)no1 the screen gave A: 0.4953%; B: 10.1%. With CCN1CC2(CCN(C(=O)C(C)Oc3ccc(F)cc3Cl)CC2)CC1=O (centres undefined) the screen gave A: 0.8653%; B: 2.597%. CCCC(NC(=O)c1ccc(OC)cc1F)c1nnn[nH]1 (centres undefined) read A: -5.507%; B: -0.4149%. Result for CCSCc1ccnc(NC(=O)C2CCOC2)c1 (centres undefined) was A: 5.23%; B: 4.545%. Result for O=C(O)c1ccc2ccc(N3CCN(CC4CC4)CC3)n2c1 was A: 5.491%; B: 41.35%.

Cn1ccc(C(=O)N2CCCC(Cc3cnc4ccccc4c3)C2)n1 (centres undefined) read A: -10.66%; B: 7.692%. Result for CN(CCOc1cccc(CNS(C)(=O)=O)c1)C1CCOCC1 was A: 1.643%; B: 10.84%. CN(C)S(=O)(=O)c1csc(C(=O)N2CCC(C(N)=O)CC2)c1 read A: 3.022%; B: -0.5618%. With C[C@H]1C[C@H]2CN(C(=O)CCc3ccccc3)CC[C@H]2O1 the screen gave B: 2.941%. O=C(NCCc1cccnc1)Nc1cc(C(F)(F)F)c[nH]c1=O gave A: -4.482%; B: 2.624%. With Cc1cc(C)n(C2CN(CC(=O)N(C)Cc3ccsc3)C2)n1 the screen gave A: 4.07%; B: 31.67%. O=C(CN1CCc2c(ncn2C2CC2)C1)NC1CC1 gave A: -4.218%; B: 1.88%.

Result for Cc1cc(C)nc(CCNC(=O)[C@H]2CNC[C@@H](C(=O)N3CCCC3)C2)n1 was A: 31.54%; B: 5.785%. For Cc1nccn1C1CCCN(C(=O)COCC(F)(F)F)C1 (centres undefined) the result was A: -14.81%; B: 0%. For COc1cccc(NC(=O)NC(C)(C)c2noc(C)n2)c1 the result was A: -8.976%; B: 5.911%. CC(=O)N(Cc1ncc(C)o1)C1CCN(CCOc2ccccc2)C1 (centres undefined) gave A: 7.344%; B: 15.66%. Result for C[C@@H]1CN(Cc2ccccc2F)CC(C(N)=O)O1 (some centres undefined) was A: 2.596%; B: -0.9804%. Result for CN(C)C(=O)N[C@H]1CN(C2CCOCC2)[C@@H]2CCCO[C@H]12 was B: 7.527%. Result for CSc1ncc(CNC(C)c2cnn(-c3ccc(F)cc3F)c2C)cn1 (centres undefined) was A: 1.768%; B: 0%.

For Cn1c(CO[C@H]2CN(S(C)(=O)=O)C[C@H]2F)nc2ccccc21 the result was A: 12.79%; B: 2.97%. CC(C)c1cc(NCC(O)c2ccccn2)n2nccc2n1 (centres undefined) gave A: 12.46%; B: 2.326%. With O=C(NC1CC2(CCN(CCO)CC2)c2ccccc21)c1ccncc1 (centres undefined) the screen gave B: 6.329%. O=C(NCC1(CO)CC1)c1ccccc1Cl gave A: 0.1357%; B: 3.061%. For CC(=O)N1CCN(C(=O)Nc2ccc(Cl)cc2)[C@H]2CS(=O)(=O)C[C@H]21 the result was B: -0.4292%.

Some entries from above, unchanged:

| structure | A | B |
|---|---|---|
| `O=C(CN1CCc2c(ncn2C2CC2)C1)NC1CC1` | -4.218% | 1.88% |
| `CN(C)S(=O)(=O)NCC(Cc1cccc(F)c1)N1CCNC1=O` (centres undefined) | -12.27% | 8.434% |
| `O=C(NCCc1cccnc1)Nc1cc(C(F)(F)F)c[nH]c1=O` | -4.482% | 2.624% |